Data source: PubChem BioAssay AID686937 (Drosophila RNAi Screening Center, 2013)
In all, the deposit lists about 23,000 reagents; this is a random part of those that have a named target and a result. 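Reduced-secretion tags in replicate 1 do not always agree with the z-scores; no criterion for assigning the tags was given.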 The numbers tell different reagents against one gene apart. Names joined by + are all predicted targets of the reagent. Not all columns of the deposit are shown. Reagent sequences are not shown. Not stated in the record: the amount of reagent.

- Test: 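Genes whose loss weakens secretory pathway function in fly cells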 (primary screen)
- Cell system: Drosophila S2 cells expressing secreted horseradish peroxidase
- Reagent: long dsRNA against Drosophila genes
- Time to read-out: about 5.5 days (5 days dsRNA, then 12 h reporter induction)
- Challenge: reporter expression induced after 5 days of dsRNA, read 12 h later; inducer not stated
- Measurement: 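After 5 days of dsRNA and 12 h of reporter induction, medium peroxidase read by chemiluminescence and scored as per-plate z-score; higher values mean more reporter released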
- Scale: z-score: higher = more reporter secreted into medium

gene knocked down,dsRNA no.,"z-score, replicate 1","z-score, replicate 2","z-score, replicate 3","z-score, replicate 4"
H2.0 (Homeodomain protein 2.0),1,0.3,-0.04,0.3,0.28
H2.0 (Homeodomain protein 2.0),2,-0.85,-0.07,,
smid (smallminded),1,0.37,0.27,,
Pgm1 (Phosphoglucose mutase 1),1,0.27,0.33,,
CG31013,1,0.16,0.07,,
CG34001,1,0.31,0.29,,
Cmpk (Cytidine/uridine monophosphate kinase 1),1,0.04,0.23,,
CG32719,1,-0.35,0.07,,
Vajk2,1,0.31,0.18,,
CG10413,1,0.4,0.26,,
Or35a (Odorant receptor 35a),1,-0.09,0.11,,
RpL13A (Ribosomal protein L13A),1,-2.51,-3.14,,
Spn43Ab (Serpin 43Ab),1,-0.08,0.02,,
lin (lines),1,0.41,0.36,,
CG16863,1,-0.08,-0.12,,
nau (nautilus),1,0.34,0.3,,
Gr36c (Gustatory receptor 36c),1,0.83,0.42,,
e(y)2b (enhancer of yellow 2b),1,0.09,0.42,,
CG3982,1,-2.58,-1.82,,
CG2747,1,0.19,-0.09,,
Npc2e (Niemann-Pick type C-2e),1,0.6,0.78,,
Npc2e (Niemann-Pick type C-2e),2,-0.57,-1.52,,
Mppe (Metallophosphoesterase),1,0.25,0.17,,
l(3)mbt (lethal (3) malignant brain tumor),1,0.25,0.35,,
Csl4,1,0.25,0.24,,
Csl4,2,-0.6,0.04,,
CG13243,1,-0.98,-0.78,,
Vps28 (Vacuolar protein sorting 28),1,-0.66,-0.68,,
CSN7 (COP9 signalosome subunit 7),1,-0.92,-1.45,,
CSN7 (COP9 signalosome subunit 7),2,-2.12,-0.57,,
CG3191,1,0.2,-0.05,-0.32,-0.29
Kif19A (Kinesin family member 19A),1,-0.63,-1.16,,
UQCR-C1 (Ubiquinol-cytochrome c reductase core protein 1),1,-0.87,-1,,
Pxd (Peroxidase),1,0.27,0.51,,
Or59a (Odorant receptor 59a),1,0.03,0.25,,
CG42780,1,0.3,0.35,,
PIG-C (Phosphatidylinositol glycan anchor biosynthesis class C),1,0.32,0.04,,
mRpL24 (mitochondrial ribosomal protein L24),1,0.06,0.14,,
"Gmer (GDP-4-keto-6-deoxy-D-mannose 3,5-epimerase/4-reductase)",1,0.07,0.21,,
pns (pinstripe),1,0.36,0.07,,
lab (labial),1,0.29,0.46,,
chic (chickadee),1,-0.12,-0.39,,
CG11883,1,0.37,0.42,,
Spn28Dc (Serpin 28Dc),1,-0.02,-0.01,,
CG13361,1,0.38,0.38,,
CG11322,1,-0.08,0.16,,
frj (farjavit),1,0.24,0.14,,
Ctr1B + Poxm,1,0.06,-0.09,,
PCNA (Proliferating cell nuclear antigen),1,0.25,0.04,,
CG5815,1,0.44,0.77,,
bnb (bangles and beads),1,0.09,-0.15,,
CG13390,1,0.38,0.25,,
Shc (SHC-adaptor protein),1,-1.33,-0.54,,
Dop2R (Dopamine 2-like receptor),1,0.04,0.38,,
Dop2R (Dopamine 2-like receptor),2,0.33,0.44,,
CG14820,1,-0.2,-0.07,,
nuf (nuclear fallout),1,0.39,0.45,,
nuf (nuclear fallout),2,-1.05,0.01,,
CG9592,1,-0.24,-0.1,,
Trs23 (TRAPP subunit 23),1,0.25,-0.22,,
BomS2 (Bomanin Short 2),1,1.02,0.86,,
Rcd7 (Reduction in Cnn dots 7),1,0.29,0.24,,
CG16812,1,0.7,0.38,,
RpS24 (Ribosomal protein S24),1,-6.98,-4.02,0.41,0.28
Prp38 (pre-mRNA processing factor 38),1,-1.35,-0.7,,
CG4576,1,-0.34,0.29,,
Cpr47Eb (Cuticular protein 47Eb),1,0.29,0.23,,
CG17217,1,0.26,0.07,,
VhaM9.7-a (Vacuolar H[+] ATPase M9.7 subunit a),1,0.24,-0.01,,
Cyp6a18 (Cytochrome P450 6a18),1,0.23,0.28,,
Lsp2 (Larval serum protein 2),1,-0.01,0.24,,
Lsp2 (Larval serum protein 2),2,0.04,0.33,,
mxc (multi sex combs),1,0.52,0.59,,
CG9775,1,0.13,0.3,,
CG9775,2,-1.18,0.01,,
wb (wing blister),1,-3.09,-3.65,,
wb (wing blister),2,-0.05,0.37,,
GlcT (Glucosylceramide synthase),1,0.62,0.32,,
CG7140,1,0.23,0.34,,
GstD6 (Glutathione S transferase D6),1,0.44,0.52,,
CG13457,1,0.15,0.06,,
LBR (Lamin B receptor),1,0.17,0.42,,
Hou (Houki),1,0.18,0.36,,
Hou (Houki),2,-0.44,-0.43,,
CG43777 + CG43776 + CG43775,1,0.25,0.06,,
CG34002,1,-0.41,0.05,-0.26,0.22
RpS8 (Ribosomal protein S8),1,-3.31,-2.25,,
GluRIB (Glutamate receptor IB),1,0.48,0.53,,
GluRIB (Glutamate receptor IB),2,0.59,0.46,,
Ir48b (Ionotropic receptor 48b),1,0.58,0.31,,
CG7304,1,0.29,0.26,,
Tsp42Ek (Tetraspanin 42Ek),1,0.31,0.28,,
CG34041,1,-0.2,-1.52,,
CG10081,1,0.33,0.38,,
CG32202,1,0.48,0.36,,
Sp212 (Serine-peptidase 212),1,-0.02,-0.13,,
nemy (no extended memory),1,0.51,0.05,,
nemy (no extended memory),2,0.53,0.22,0.41,0.21
CG3491,1,-1.06,-0.92,,
mRpL46 (mitochondrial ribosomal protein L46),1,-0.34,0.1,,
CG8314,1,0.13,0.24,,
CG11085,1,0.35,0.51,,
CG11085,2,-0.38,-0.21,,
Cyp9c1 (Cytochrome P450 9c1),1,0.1,0.01,,
